Measured data: PubChem BioAssay AID1259254 (NCATS, 2017)
This is one part, drawn at random, of about 59,000 deposited reagents. In the full data, about 1,550 (2.6%) are marked active. 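G2 share is only a proxy for re-replication; each gene was hit by three separate siRNAs, and active genes were retested.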 Unmarked entries are inactive. Reagents against one gene are numbered here. Further read-outs or replicates are left out here. Not stated in the record: the amount of reagent.

Screen: 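Gene knock-downs that lead to re-replication, shown by excess G2 DNA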 (primary screen)
Cell system: human HCT116 colorectal cancer cells
Reagents: single siRNA against human genes
Timing: 3 days
Detection: 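Nuclei stained with Hoechst and imaged; cell-cycle phase assigned by DNA content; G2 share scaled per plate, non-targeting siRNA 0%, GMNN siRNA 100%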
Reading the numbers: G2 robust z-score: higher = more G2 cells, more excess DNA replication
Rule for the call: 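Active siRNAs have a G2 robust z of 5 or more median absolute deviations over the median, which in these data means about 38% or higher of GMNN control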

G2 robust z-score, by target gene and reagent
MTMR7: #1 1.08; #2 -0.167; #3 -0.101
CASP1: #1 -1.19; #2 -0.143; #3 -0.915
LPAL2: #1 -0.629; #2 0.322; #3 2.32
ZDHHC9: #1 1.3; #2 -0.534; #3 0.0514
OR7C1: #1 1.45; #2 3.71; #3 -0.313
TNS4: #1 2.93; #2 0.782; #3 1.96
RIOK1: #1 0.291; #2 1.21; #3 2.05
PPP1R14D: #1 0.16; #2 5.43 (active); #3 1.93
PXDN: #1 -0.651; #2 -0.0187; #3 1.54
HNRNPCL1: #1 1.68; #2 -0.981; #3 0.537

Laid out differently: 6 of the entries above.
PPP1R14D #3
- G2 robust z-score: 1.93

PXDN #1
- G2 robust z-score: -0.651

PXDN #2
- G2 robust z-score: -0.0187

PXDN #3
- G2 robust z-score: 1.54

HNRNPCL1 #1
- G2 robust z-score: 1.68

HNRNPCL1 #2
- G2 robust z-score: -0.981

Additional entries:
G2 robust z-score, by target gene and reagent
KITLG: #1 -0.484; #2 0.63; #3 -1.39
IFIH1: #1 0.271; #2 -0.682; #3 0.125
HIP1R: #1 7.2 (active); #2 -0.797; #3 -0.117
CCDC83: #1 0.448; #2 0.209; #3 3.6
CFAP46: #1 0.451; #2 -0.277; #3 1.58; #4 -0.435; #5 2.37; #6 4.67
SLC7A5: #1 1.24; #2 2.27; #3 0.708
TTC39A: #1 -0.285; #2 -0.991; #3 0.94
TAS2R16: #1 1.29; #2 1.39; #3 -0.548
NEK1: #1 -0.446; #2 -0.169; #3 -0.833
ZFP90: #1 -0.49; #2 3.91; #3 0.378
MYLK2: #1 0.0963; #2 0.795; #3 -0.624
HAX1: #1 -1.05; #2 0.24; #3 1.04
